{
  "source": "PubChem BioAssay AID1347076",
  "about": "(National Center for Advancing Translational Sciences (NCATS), 2019)",
  "note": "Screen size: about 400,000 compounds; about 13,000 (3.2%) were called active. The shares of active, inactive and inconclusive entries below differ from those in the screen. The call rests on the fitted dose curve; in most records, active means well fitted cell-killing curve with a large enough effect; inconclusive means small, poorly fitted or top-dose-only effect, or effect the other way; inactive means flat fitted curve, though single readings scatter. Where the call is inconclusive, the potency comes from a doubtful curve fit. On the % scale 0 is the no-effect control and ±100 the full control effect; potency means the concentration at half of the fitted maximal effect.",
  "data": [
    {"assay": "qHTS assay for MDR1-selective chemotherapeutics: Primary screen using the drug-selected MDR subline cells KB-V1; further: nearly all actives have a fitted effect of over 60% in size", "conditions": "KB-V1 MDR cells viability, CellTiter-Glo, 72 h; activity change, negative = cytotoxicity: at 46.1 µM (top of the series)", "outline": "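Cytotoxicity via CellTiter-Glo luminescence after 72 h compound exposure at 37 degrees C. Cells: drug-selected KB-V1 line, DMEM phenol-red free plus 10% FBS. Compounds tested at multiple concentrations; normalized data fitted to concentration-effect curves.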", "values": [
      {"smiles": "O=C(Nc1ccncc1)c1cc(-c2cccc(Br)c2)nc2ccccc12", "Potency": "inconclusive: 9.2 µM [cytotoxic, partial curve]"},
      {"smiles": "COc1ccc(-c2sc3ccccc3c2-c2ccc(OCCN3CCCCC3)cc2)cc1", "Potency": "inconclusive: 29.1 µM [cytotoxic, single point]"},
      {"smiles": "O=C(Nc1ccc2oc(-c3ccccc3)nc2c1)C1CCCO1", "note": "(stereo unspecified)", "Potency": "inconclusive: 29.1 µM [cytotoxic, single point]"},
      {"smiles": "CCOc1cc2[nH]c(=S)n(CCN3CCCCC3CC)c(=O)c2cc1OCC", "note": "(stereo unspecified)", "Potency": "inconclusive: 20.6 µM [cytotoxic, partial curve, poor fit]"},
      {"smiles": "Cc1cc(C)c2c(=O)n3c(nc2c1)C(CC(C)C)NC(=O)c1cccnc1-3", "note": "(stereo unspecified)", "activity change, negative = cytotoxicity": "inactive: -5.13%"},
      {"smiles": "COc1cccc(-c2ncc3ccccc3c2COC(=O)c2ccc(F)cc2)c1", "activity change, negative = cytotoxicity": "inactive: 0.0629%"},
      {"smiles": "O=C(/C=C/Sc1ncn[nH]1)c1ccc(Cl)cc1", "Potency": "inconclusive: 18.4 µM [cytotoxic, single point]"},
      {"smiles": "CCC1(c2ccc(F)cc2)NC(=O)N(CC(=O)N2CCc3ccccc32)C1=O", "note": "(stereo unspecified)", "activity change, negative = cytotoxicity": "inactive: -5.24%"},
      {"smiles": "COC(=O)C(CCSC)NC(=O)c1cn(-c2ccc(OC)cc2)c(=O)c2ccccc12", "note": "(stereo unspecified)", "Potency": "inconclusive: 8.2 µM [rising, partial curve, poor fit]"},
      {"smiles": "CC(C)NC(=O)C1C(c2ccccc2)=Nc2ccccc2N1C(=O)c1cc(Cl)cc(Cl)c1", "note": "(stereo unspecified)", "Potency": "inconclusive: 9.2 µM [cytotoxic, partial curve, poor fit]"},
      {"smiles": "CCc1ccc(OCCCn2c(CCCNC(=O)C3CCCCC3)nc3ccccc32)cc1", "activity change, negative = cytotoxicity": "inactive: -0.972%"},
      {"smiles": "O=C(NCC1CCCN(Cc2nccs2)C1)c1cccc2ccccc12", "note": "(stereo unspecified)", "Potency": "inconclusive: 20.6 µM [cytotoxic, single point]"},
      {"smiles": "COc1ccc(OCC(=O)Nc2ccccc2O)cc1", "Potency": "active: 16.4 µM"},
      {"smiles": "CN(c1ccccc1)C(CNS(=O)(=O)c1ccccc1)c1ccccc1", "note": "(stereo unspecified)", "activity change, negative = cytotoxicity": "inactive: -26.4%"},
      {"smiles": "Cc1cccc(-c2nnc(SCCC(=O)N3CCOCC3)o2)c1", "Potency": "inconclusive: 14.6 µM [cytotoxic, single point]"},
      {"smiles": "O=C(CN1C(=O)C2CCCCN2c2ccc(C(=O)N3CCCC3)cc21)NCc1ccccc1F", "note": "(stereo unspecified)", "activity change, negative = cytotoxicity": "inactive: 12.2%"},
      {"smiles": "CN(NC(=O)Nc1ccc(Cl)cc1)c1ncc(C(F)(F)F)cc1Cl", "Potency": "active: 16.4 µM"},
      {"smiles": "CCCn1nc(C(=O)NCc2ccc3c(c2)OCO3)c2ccccc2c1=O", "Potency": "inconclusive: 16.4 µM [cytotoxic, partial curve]"},
      {"smiles": "CNS(=O)(=O)c1cn(CC(=O)Nc2cccc(C(F)(F)F)c2)cc1S(=O)(=O)NC", "activity change, negative = cytotoxicity": "inactive: 13.6%"},
      {"smiles": "O=C(c1cccs1)N1CCN(c2ccccc2)CC1", "activity change, negative = cytotoxicity": "inactive: 15.1%"},
      {"smiles": "Cc1sc2c3ccsc3ccc2[n+]1C", "activity change, negative = cytotoxicity": "inactive: 4.02%"},
      {"smiles": "CC(C)COc1ccc(Nc2ncnc3ccc(Br)cc23)cc1", "Potency": "inconclusive: 29.1 µM [rising, single point]"},
      {"smiles": "Cc1ccc(OCCNc2ccc(S(=O)(=O)N3CCCC3)cn2)cc1", "Potency": "inconclusive: 16.4 µM [cytotoxic, single point]"},
      {"smiles": "CC(OC(=O)c1cc2sccc2n1C)C(=O)NCc1cccs1", "note": "(stereo unspecified)", "Potency": "inconclusive: 16.4 µM [cytotoxic, partial curve]"},
      {"smiles": "CCOC(=O)Cc1cc(-c2ccc(OC)cc2)nc2ccc3ccccc3c12", "Potency": "inconclusive: 25.9 µM [cytotoxic, single point]"},
      {"smiles": "Cc1ccc(C2=NN(S(C)(=O)=O)C(c3cccs3)C2)cc1", "note": "(stereo unspecified)", "Potency": "inconclusive: 20.6 µM [cytotoxic, partial curve, poor fit]"},
      {"smiles": "Cc1ccc(CSCCNC(=O)c2ccc(Cl)c(S(=O)(=O)N3CCOCC3)c2)cc1", "Potency": "active: 3.66 µM"},
      {"smiles": "CNS(=O)(=O)c1cn(CC(=O)N2CCN(c3ccc(C)cc3C)CC2)cc1S(=O)(=O)NC", "activity change, negative = cytotoxicity": "inactive: 13.3%"},
      {"smiles": "CCN(CC(=O)Nc1c(F)cccc1F)C(=O)c1csc2c1CCCC2", "Potency": "inconclusive: 14.6 µM [cytotoxic, partial curve, poor fit]"},
      {"smiles": "COc1cccc(C(=O)NN=C2CCCC2)c1", "Potency": "inconclusive: 9.2 µM [rising, partial curve, poor fit]"},
      {"smiles": "Cc1ccccc1NC(=O)CSc1nc(Nc2ccccc2)nc(N2CCOCC2)n1", "activity change, negative = cytotoxicity": "inactive: -4.35%"},
      {"smiles": "Cc1cc(C)cc(NC(=O)C(=O)NCC(c2cccnc2)N2CCc3ccccc32)c1", "note": "(stereo unspecified)", "activity change, negative = cytotoxicity": "inactive: -5.89%"},
      {"smiles": "COCCCn1c(SCC(=O)N2CCOCC2)nc2cc(Cl)ccc2c1=O", "Potency": "inconclusive: 20.6 µM [cytotoxic, single point]"},
      {"smiles": "COc1cc(NC(=O)c2cccc3c(-c4cccnc4)coc23)cc(OC)c1OC", "Potency": "active: 7.31 µM"},
      {"smiles": "Cc1sccc1/C=N/NC(=O)c1cccc2ccccc12", "Potency": "inconclusive: 13 µM [cytotoxic, partial curve]"},
      {"smiles": "O=C1CCCN1CCCNc1ncnc2c1cnn2-c1ccc(Cl)cc1", "Potency": "inconclusive: 8.2 µM [cytotoxic, partial curve]"},
      {"smiles": "N#C/C(=C\\C=C\\c1ccccc1[N+](=O)[O-])C(=O)NC1CCCCC1", "Potency": "inconclusive: 29.1 µM [cytotoxic, single point]"},
      {"smiles": "C[C@@H]1CN(c2c(F)c(F)c3c(=O)c(C(=O)O)cn(C4CC4)c3c2F)C[C@H](C)N1", "Potency": "inconclusive: 1.16 µM [cytotoxic, partial curve]"},
      {"smiles": "CC(C)C[C@H]1CN=C(Nc2ccccc2)N1CC1CCC(C(C)(C)C)CC1", "note": "(stereo partly specified)", "Potency": "inconclusive: 29.1 µM [cytotoxic, single point]"},
      {"smiles": "COC(=O)c1ccc(Cl)cc1NC(=O)Nc1nnc(N(C)Cc2ccccc2)s1", "activity change, negative = cytotoxicity": "inactive: 4.32%"},
      {"smiles": "CC(=O)c1c(C)[nH]c(C(=O)OCC(=O)Nc2cc(C)on2)c1C", "activity change, negative = cytotoxicity": "inactive: -22.5%"},
      {"smiles": "COc1cc(OC)cc(-c2nc3ccccc3c(=O)n2OC(=O)c2ccccc2C)c1", "Potency": "inconclusive: 23.1 µM [cytotoxic, single point]"},
      {"smiles": "CC(Cc1cccs1)NC(=O)Nc1ccc(F)cc1", "note": "(stereo unspecified)", "Potency": "inconclusive: 25.9 µM [rising, single point]"},
      {"smiles": "CCOc1ccc(N2CC(C(=O)NCCN3C(=O)S/C(=C\\c4cccnc4)C3=O)CC2=O)cc1", "note": "(stereo unspecified)", "Potency": "inconclusive: 16.4 µM [rising, partial curve]"},
      {"smiles": "Clc1cccc(OCCCCN2CCCCC2)c1", "Potency": "inconclusive: 32.6 µM [cytotoxic, single point]"},
      {"smiles": "COc1ccccc1NC(=O)CN1CCN(CC(=O)Nc2ccc(F)c(F)c2)CC1", "activity change, negative = cytotoxicity": "inactive: -58.3%"}
    ]}
  ]
}
